In the supplement of paper PMC11732987, “Enantioselective OTUD7B fragment discovery through chemoproteomics screening and high-throughput optimisation” (Communications Chemistry, 2025):
The list shows a part of the results. The data scatter; read single values as rough.

Sequences of proteins named here, by UniProt entry; tags and fusion partners are left off. A change or cut given only in a name is not applied to a line headed by its entry. Residues count along the entry.
UniProt Q15572: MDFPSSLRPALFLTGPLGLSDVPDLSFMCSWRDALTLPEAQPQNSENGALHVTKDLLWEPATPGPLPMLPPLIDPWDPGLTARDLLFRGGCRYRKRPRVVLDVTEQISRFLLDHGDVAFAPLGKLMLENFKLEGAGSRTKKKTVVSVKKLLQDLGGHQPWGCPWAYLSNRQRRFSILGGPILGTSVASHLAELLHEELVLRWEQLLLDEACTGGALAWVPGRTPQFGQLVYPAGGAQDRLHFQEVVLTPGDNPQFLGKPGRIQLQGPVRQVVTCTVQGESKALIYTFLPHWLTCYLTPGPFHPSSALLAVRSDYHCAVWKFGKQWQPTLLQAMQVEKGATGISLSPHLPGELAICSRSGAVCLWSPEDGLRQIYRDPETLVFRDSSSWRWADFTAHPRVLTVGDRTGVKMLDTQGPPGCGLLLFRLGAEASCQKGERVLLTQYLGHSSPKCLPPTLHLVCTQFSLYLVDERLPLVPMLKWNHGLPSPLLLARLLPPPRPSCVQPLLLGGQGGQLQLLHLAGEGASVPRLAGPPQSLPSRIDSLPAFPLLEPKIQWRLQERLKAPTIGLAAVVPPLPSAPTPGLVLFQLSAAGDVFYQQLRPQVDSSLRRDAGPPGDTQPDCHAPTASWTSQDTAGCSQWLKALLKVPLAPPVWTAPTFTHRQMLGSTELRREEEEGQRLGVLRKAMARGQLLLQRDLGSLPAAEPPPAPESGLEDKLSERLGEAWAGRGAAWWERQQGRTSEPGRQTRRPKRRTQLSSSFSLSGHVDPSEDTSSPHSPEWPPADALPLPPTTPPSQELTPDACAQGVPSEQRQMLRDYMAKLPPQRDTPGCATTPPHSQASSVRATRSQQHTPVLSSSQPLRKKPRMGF
UniProt O75478: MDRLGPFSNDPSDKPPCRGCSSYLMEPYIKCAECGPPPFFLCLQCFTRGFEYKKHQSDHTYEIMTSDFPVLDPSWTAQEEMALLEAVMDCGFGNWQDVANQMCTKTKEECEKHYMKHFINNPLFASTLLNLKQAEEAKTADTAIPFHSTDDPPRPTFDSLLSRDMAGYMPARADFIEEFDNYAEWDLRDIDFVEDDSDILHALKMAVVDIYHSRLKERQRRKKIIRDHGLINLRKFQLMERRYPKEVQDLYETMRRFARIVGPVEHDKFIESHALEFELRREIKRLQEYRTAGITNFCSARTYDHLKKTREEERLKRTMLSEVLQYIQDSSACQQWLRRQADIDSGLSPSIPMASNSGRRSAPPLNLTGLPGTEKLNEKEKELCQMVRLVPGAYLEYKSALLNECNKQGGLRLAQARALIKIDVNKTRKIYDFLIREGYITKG
UniProt Q9NXG2: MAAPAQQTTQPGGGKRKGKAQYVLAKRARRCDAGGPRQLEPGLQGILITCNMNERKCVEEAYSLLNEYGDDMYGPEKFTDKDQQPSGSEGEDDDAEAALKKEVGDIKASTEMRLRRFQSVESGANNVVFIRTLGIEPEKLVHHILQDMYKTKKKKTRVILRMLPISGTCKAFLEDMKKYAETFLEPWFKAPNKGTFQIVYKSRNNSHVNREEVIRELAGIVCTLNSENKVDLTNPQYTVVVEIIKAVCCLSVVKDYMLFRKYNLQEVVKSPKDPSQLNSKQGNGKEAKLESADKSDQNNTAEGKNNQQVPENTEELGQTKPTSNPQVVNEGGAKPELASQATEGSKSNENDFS
UniProt Q9BV44: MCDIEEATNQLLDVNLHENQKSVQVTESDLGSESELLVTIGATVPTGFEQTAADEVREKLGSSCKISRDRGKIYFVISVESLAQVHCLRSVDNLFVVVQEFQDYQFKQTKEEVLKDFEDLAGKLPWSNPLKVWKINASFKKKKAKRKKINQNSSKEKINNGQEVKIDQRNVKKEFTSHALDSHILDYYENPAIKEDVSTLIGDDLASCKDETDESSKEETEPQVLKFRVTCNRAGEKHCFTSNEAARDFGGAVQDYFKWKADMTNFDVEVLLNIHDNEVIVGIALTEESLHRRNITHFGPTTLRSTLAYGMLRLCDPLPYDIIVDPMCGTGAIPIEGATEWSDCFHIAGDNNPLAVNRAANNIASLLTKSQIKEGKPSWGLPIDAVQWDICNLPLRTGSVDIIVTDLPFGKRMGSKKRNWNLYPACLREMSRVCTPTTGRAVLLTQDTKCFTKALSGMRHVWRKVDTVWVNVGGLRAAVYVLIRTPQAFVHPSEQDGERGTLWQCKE
UniProt Q66K14: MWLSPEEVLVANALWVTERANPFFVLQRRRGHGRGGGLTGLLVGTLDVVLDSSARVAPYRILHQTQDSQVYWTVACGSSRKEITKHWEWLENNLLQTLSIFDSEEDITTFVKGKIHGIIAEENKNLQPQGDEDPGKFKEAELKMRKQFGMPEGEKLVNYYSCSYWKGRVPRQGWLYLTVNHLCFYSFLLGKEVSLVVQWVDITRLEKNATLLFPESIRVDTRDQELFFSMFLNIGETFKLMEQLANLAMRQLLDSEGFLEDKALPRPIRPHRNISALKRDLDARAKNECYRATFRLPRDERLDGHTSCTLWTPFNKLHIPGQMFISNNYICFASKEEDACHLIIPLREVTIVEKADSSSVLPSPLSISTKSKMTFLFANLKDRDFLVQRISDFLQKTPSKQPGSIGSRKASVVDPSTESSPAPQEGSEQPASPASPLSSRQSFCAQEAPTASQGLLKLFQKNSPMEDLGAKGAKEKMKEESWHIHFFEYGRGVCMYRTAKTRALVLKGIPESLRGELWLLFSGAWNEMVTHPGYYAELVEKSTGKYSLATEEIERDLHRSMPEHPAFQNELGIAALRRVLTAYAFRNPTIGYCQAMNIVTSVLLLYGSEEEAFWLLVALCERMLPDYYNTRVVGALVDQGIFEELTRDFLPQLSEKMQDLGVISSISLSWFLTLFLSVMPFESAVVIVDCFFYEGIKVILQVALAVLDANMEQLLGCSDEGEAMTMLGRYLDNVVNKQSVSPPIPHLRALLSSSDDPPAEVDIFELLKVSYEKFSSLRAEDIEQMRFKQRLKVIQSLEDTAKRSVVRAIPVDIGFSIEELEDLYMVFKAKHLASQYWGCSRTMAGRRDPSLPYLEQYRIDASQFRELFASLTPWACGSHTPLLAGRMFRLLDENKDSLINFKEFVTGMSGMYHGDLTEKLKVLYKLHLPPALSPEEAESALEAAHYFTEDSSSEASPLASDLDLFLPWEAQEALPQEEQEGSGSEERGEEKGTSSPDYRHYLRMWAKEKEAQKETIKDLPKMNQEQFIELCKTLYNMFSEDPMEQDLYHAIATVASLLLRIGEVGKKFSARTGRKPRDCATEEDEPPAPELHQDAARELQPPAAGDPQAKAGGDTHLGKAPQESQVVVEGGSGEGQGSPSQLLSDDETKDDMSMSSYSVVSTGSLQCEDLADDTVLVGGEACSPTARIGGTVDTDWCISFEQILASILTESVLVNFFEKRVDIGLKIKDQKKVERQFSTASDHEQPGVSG
UniProt Q8NHU6, 380-399: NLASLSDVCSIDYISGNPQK
UniProt Q9UL54: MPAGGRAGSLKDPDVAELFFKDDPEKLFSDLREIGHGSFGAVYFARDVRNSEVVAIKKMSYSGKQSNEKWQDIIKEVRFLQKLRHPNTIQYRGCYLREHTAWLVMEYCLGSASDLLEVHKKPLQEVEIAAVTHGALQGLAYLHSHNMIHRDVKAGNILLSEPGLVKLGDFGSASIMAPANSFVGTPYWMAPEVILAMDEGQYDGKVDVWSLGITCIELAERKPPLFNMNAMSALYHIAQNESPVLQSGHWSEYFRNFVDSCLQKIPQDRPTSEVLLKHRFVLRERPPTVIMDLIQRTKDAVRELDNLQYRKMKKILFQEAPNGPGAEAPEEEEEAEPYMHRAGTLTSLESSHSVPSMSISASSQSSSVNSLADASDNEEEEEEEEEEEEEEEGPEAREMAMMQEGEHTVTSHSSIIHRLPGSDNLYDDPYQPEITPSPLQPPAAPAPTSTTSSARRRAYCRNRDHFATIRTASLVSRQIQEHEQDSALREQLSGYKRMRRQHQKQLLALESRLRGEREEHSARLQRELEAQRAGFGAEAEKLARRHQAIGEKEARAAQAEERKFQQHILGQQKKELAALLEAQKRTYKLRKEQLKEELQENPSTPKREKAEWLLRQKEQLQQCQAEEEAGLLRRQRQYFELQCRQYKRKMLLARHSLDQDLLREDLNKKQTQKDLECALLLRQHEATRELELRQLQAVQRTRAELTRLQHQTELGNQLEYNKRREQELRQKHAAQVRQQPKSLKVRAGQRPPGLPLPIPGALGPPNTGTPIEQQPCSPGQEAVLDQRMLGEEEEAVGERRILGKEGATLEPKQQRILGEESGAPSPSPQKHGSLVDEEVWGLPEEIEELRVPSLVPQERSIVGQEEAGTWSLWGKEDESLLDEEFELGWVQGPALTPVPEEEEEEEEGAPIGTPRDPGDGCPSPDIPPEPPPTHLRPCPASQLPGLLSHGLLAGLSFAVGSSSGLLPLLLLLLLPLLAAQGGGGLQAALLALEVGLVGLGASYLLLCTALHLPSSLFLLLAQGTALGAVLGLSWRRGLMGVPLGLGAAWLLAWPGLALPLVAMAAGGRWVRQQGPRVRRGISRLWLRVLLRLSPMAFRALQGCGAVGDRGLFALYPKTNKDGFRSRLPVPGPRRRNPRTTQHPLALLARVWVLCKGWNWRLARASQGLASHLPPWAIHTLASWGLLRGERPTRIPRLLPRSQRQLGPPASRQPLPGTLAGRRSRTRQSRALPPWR
UniProt Q86SX3: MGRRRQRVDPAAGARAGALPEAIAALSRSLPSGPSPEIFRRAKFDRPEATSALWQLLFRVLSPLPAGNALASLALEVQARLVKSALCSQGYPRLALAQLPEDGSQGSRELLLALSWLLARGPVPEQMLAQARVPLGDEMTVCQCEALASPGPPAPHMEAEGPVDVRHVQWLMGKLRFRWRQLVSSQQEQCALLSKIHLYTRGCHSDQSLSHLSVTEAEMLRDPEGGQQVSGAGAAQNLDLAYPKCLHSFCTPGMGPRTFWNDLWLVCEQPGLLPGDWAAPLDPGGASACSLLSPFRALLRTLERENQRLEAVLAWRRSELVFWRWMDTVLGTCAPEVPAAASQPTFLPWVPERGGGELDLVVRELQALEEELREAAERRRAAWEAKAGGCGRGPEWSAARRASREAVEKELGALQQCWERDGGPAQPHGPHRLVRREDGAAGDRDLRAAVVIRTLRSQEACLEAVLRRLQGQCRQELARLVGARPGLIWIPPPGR
UniProt Q9UPU7: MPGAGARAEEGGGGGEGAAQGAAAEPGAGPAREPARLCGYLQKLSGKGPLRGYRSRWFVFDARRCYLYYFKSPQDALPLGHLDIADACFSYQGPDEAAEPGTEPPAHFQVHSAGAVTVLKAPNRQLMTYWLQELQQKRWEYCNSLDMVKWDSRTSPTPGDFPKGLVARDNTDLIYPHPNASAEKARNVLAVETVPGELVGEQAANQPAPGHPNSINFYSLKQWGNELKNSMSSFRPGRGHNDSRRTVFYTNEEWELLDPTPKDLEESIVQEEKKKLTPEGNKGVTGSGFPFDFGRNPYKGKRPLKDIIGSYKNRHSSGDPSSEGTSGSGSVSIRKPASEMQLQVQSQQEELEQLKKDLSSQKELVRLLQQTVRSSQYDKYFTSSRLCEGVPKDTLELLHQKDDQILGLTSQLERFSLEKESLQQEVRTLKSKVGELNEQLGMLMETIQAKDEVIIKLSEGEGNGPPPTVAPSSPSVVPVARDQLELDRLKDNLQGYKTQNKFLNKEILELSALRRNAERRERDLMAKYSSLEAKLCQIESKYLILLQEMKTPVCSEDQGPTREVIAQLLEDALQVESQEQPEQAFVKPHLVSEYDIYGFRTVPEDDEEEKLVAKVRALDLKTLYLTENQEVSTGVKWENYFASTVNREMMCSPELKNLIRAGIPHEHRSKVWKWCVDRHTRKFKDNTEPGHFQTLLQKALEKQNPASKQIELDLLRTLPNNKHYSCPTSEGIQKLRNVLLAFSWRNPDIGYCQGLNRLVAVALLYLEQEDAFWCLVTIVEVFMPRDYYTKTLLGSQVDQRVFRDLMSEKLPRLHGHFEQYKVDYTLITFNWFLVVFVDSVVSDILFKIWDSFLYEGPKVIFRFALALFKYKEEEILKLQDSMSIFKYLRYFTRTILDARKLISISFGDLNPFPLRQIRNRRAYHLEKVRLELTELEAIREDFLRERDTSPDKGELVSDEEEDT
UniProt Q96BW9, 271-290: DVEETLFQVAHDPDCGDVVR
UniProt Q15814, 173-196: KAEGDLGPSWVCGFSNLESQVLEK
UniProt Q9P0N9: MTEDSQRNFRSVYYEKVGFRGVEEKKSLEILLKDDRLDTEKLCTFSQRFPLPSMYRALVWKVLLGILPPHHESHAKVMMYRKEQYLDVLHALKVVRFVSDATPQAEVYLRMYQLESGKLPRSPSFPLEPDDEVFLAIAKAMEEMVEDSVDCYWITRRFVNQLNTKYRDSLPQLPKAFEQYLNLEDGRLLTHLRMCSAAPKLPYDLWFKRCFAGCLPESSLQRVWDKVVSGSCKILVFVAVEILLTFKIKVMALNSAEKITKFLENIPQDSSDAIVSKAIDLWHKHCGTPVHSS

Each target was assayed with ClCC(=O)N[C@@H]1CCCc2ccccc12 (assay: log2 mean competition ratio of IA-DTB cysteine labelling (DMSO/compound) (log2 ratio); higher = stronger cysteine engagement by compound). Conditions: 50 µM; treatment time: 4 h; cell line lysate: HEK293T.
Description: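 IA-DTB competitive cysteine chemoproteomics in HEK293T RIPA lysate. Lysates were treated with compound 29 or 30 at 50 or 200 µM for 4 h, then IA-DTB (500 µM, 1 h), trypsin-digested, NeutrAvidin-enriched and analysed by diaPASEF. Competition ratio = intensity DMSO / intensity compound (n=4 treated, n=64 DMSO); binding: mean log2 CR ≥ 1 and p ≤ 0.05 plus QC filters. Target is the cysteine site.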

Row | Target | log2 mean competition ratio
1 | TAF1C C831 (UniProt Q15572) | 0.237
2 | TET2 C353 (UniProt Q6N021) | -0.317
3 | TADA2A C384 (UniProt O75478) | 0.0498
4 | THUMPD1 C222 (UniProt Q9NXG2) | -0.881
5 | THUMPD3 C434 (UniProt Q9BV44) | -0.0501
6 | TBC1D9B C340 (UniProt Q66K14) | -0.0575
7 | TENT2 C217 (UniProt Q6PIY7) | 0.198
8 | TDRD7 C692 (UniProt Q8NHU6) | 0.0179
9 | TBC1D24 C29 (UniProt Q9ULP9) | -0.144
10 | THADA C683 (UniProt Q6YHU6) | 0.134
11 | TGM2 C230 | -0.119
12 | TGDS C5 (UniProt O95455) | -0.183
13 | TANC1 C1136 (UniProt Q9C0D5) | -0.386
14 | TFIP11 C383 (UniProt Q9UBB9) | 0.1
15 | TAOK2 C623 (UniProt Q9UL54) | -0.185
16 | TEDC1 C417 (UniProt Q86SX3) | -0.212
17 | TBC1D2B C726 (UniProt Q9UPU7) | -0.0689
18 | TAF10 C174 (UniProt Q12962) | -0.114
19 | TARS3 C74 | 0.0584

Row | Target | log2 mean competition ratio
20 | TACC2 C2859 (UniProt O95359) | 0.256
21 | TBCD C899 | 0.0171
22 | TBL2 C367 (UniProt Q9Y4P3) | -0.0173
23 | TACC3 C662 | 0.0593
24 | THUMPD1 C169 (UniProt Q9NXG2) | 0.0318
25 | TDRD7 C103 (UniProt Q8NHU6) | -0.0823
26 | TAMM41 C285 (UniProt Q96BW9) | -0.329
27 | TECPR2 C282 (UniProt O15040) | -0.116
28 | TBCC C184 (UniProt Q15814) | 0.36
29 | TBC1D7 C195 (UniProt Q9P0N9) | -0.284
30 | TBC1D4 C74 (UniProt O60343) | -0.0158
31 | TAX1BP1 C675 (UniProt Q86VP1) | -0.439
32 | TFDP2 C329 (UniProt Q14188) | -0.177
33 | TES C164 (UniProt Q9UGI8) | -0.194
34 | TADA3 C162 (UniProt O75528) | 0.381
35 | TDRD7 C388 (UniProt Q8NHU6) | -0.129
36 | TBC1D22B C354 (UniProt Q9NU19) | 0.191
37 | TARS3 C62 | -0.123

Same assay, conditions: 200 µM; treatment time: 4 h; cell line lysate: HEK293T

Row | Target | log2 mean competition ratio
38 | TAF1C C831 (UniProt Q15572) | -0.0162
39 | TET2 C353 (UniProt Q6N021) | 0.0165
40 | TADA2A C384 (UniProt O75478) | 0.247
41 | THUMPD1 C222 (UniProt Q9NXG2) | -0.194
42 | THUMPD3 C434 (UniProt Q9BV44) | 0.077
43 | TBC1D9B C340 (UniProt Q66K14) | -0.321
44 | TENT2 C217 (UniProt Q6PIY7) | 0.196
45 | TDRD7 C692 (UniProt Q8NHU6) | 0.000288
46 | TBC1D24 C29 (UniProt Q9ULP9) | 0.0123
47 | THADA C683 (UniProt Q6YHU6) | 0.154
48 | TGM2 C230 | -0.393
49 | TGDS C5 (UniProt O95455) | -0.711
50 | TANC1 C1136 (UniProt Q9C0D5) | -0.137
51 | TFIP11 C383 (UniProt Q9UBB9) | 0.0407
52 | TAOK2 C623 (UniProt Q9UL54) | 0.471
53 | TEDC1 C417 (UniProt Q86SX3) | -0.102
54 | TBC1D2B C726 (UniProt Q9UPU7) | 0.0998
